Source: patent US20250249026A1 (priority 2019, published 2025)
For at least one compound, name, drawing or mass did not settle the structure.

Experiments:
[1] = randomized controlled trial / meta analyses from the literature; cited from earlier work
iNOS = test: Expression of iNOS in macrophages induced by LPS (Embodiment 8); assay type: cell-based, Mouse; conditions: 10 μmol/L, LPS 0.1 μg/mL, 24 h, ELISA, FIG. 6
Description: 1. Cell line: Macrophage RAW264.7.
2. Reagents: LPS (Sigma); iNOS detection kit (Stressgen); MTT (Biotopped).
The level of iNOS protein in macrophages was determined by ELISA using an anti-human iNOS polyclonal antibody (Stressgen). The number of macrophages was determined by using an automatic flow cytometer.

## C[C@]12CCC(=O)C=C1CC[C@H]1[C@@H]3CC[C@](O)(C(=O)CO)[C@@]3(C)C[C@H](O)[C@@]12F [fludrocortisone]
[1]
  mortality of patients with sepsis: did not reduce

## C[C@H](O)[C@H](O)[C@H]1CNc2nc(N)[nH]c(=O)c2N1 [tetrahydrobiopterin, reference compound]
iNOS
  effect on expression of iNOS in macrophages induced by LPS: did not affect
iNOS; listed as BH4
  effect on expression of iNOS in macrophages induced by LPS: almost no effect
